Assay: peptide synthesis
Conditions: coupling step

Q: Which step yield does the source give for “Tert-butyl (2-((2-(((2S,3S)-1-(((3S,6S)-6-(((1H-1,2,3-triazol-4-yl)methyl)carbamoyl)-4-oxo-1,2,3,4,6,7-hexahydroazepino[3,2,1-hi]indol-3-yl)amino)-3-methyl-1-oxopentan-2-yl)amino)-2-oxoethyl)amino)-2-oxoethyl)carbamate (20-h)” here?
A: Its step yield is 77%.

Source: US12551582 (dated 2026)
